This note sets out measurements from patent US20100234450.

Amino acid sequences for entries named in this document (tags omitted). A change or cut given only in a name is not applied to a line headed by its entry.
UniProt Q04609: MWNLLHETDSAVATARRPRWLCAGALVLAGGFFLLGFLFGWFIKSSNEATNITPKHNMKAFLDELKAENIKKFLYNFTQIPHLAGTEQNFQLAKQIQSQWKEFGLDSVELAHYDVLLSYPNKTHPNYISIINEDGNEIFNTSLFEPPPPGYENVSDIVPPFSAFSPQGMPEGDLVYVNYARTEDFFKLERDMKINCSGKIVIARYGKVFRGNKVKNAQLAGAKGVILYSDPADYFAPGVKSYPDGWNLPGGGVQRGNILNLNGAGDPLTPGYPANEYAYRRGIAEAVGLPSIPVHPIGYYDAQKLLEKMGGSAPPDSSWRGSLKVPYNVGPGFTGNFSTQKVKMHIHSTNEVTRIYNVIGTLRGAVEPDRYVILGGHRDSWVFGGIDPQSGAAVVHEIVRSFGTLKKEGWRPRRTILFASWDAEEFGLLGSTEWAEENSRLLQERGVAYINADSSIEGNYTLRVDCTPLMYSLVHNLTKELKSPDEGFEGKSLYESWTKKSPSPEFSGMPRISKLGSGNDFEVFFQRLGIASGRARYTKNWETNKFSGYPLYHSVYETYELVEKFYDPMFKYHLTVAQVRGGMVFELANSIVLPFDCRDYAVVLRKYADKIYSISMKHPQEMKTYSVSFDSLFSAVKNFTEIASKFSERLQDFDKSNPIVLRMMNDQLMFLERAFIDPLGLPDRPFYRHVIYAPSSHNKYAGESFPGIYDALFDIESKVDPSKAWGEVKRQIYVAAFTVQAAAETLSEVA

At least one result comes from cells or an extract, where the contact may be indirect.

This data set has as its target PSMA (prostate-specific membrane antigen) (Homo sapiens) (UniProt Q04609). Description: binding assay. The conditions noted are these: 5'-NOTA chelator via linker; in vivo PET, 22Rv1(1.7) xenograft in nude mouse, tumor:background 8:1 at 120 min; protein on the cell surface; label: 68Ga; variant of A10-3.2 (32P).

With “GGGAGGACGAUGCGGAUCAGCCAUGUUUACGUCACUCCU [68Ga-NOTA-A10-3.2]”, the binding result is listed as “binds”.
